{
  "source": "PubChem BioAssay AID248",
  "about": "(DTP/NCI, 2004)",
  "system": "L1210 leukemia ip in BDF1 mice, survival T/C",
  "test": "NCI In Vivo Anticancer Drug Screen. Data for tumor model L1210 Leukemia (intraperitoneal) in B6D2F1 (BDF1) mice",
  "details": "T/C endpoint: mean survival time, higher T/C = longer survival",
  "key": {"[1]": {"details": "dose: 400.0 mg/kg/injection, schedule: Q04DX003 (ip), vehicle: saline with Tween-80"}, "[2]": {"details": "dose: 75.0 mg/kg/injection, schedule: Q01DX001 (ip), vehicle: carboxymethylcellulose (CMC)"}, "[3]": {"details": "dose: 150.0 mg/kg/injection, schedule: Q01DX001 (ip), vehicle: carboxymethylcellulose (CMC)"}, "[4]": {"details": "dose: 300.0 mg/kg/injection, schedule: Q01DX001 (ip), vehicle: carboxymethylcellulose (CMC)"}, "[5]": {"details": "dose: 200.0 mg/kg/injection, schedule: Q01DX009 (ip), vehicle: Klucel (hydroxypropylcellulose) (HPC)"}, "[6]": {"details": "dose: 200.0 mg/kg/injection, schedule: Q01DX001 (ip), vehicle: carboxymethylcellulose (CMC)"}, "[7]": {"details": "dose: 200.0 mg/kg/injection, schedule: Q01DX009 (ip), vehicle: saline with Tween-80"}, "[8]": {"details": "dose: 100.0 mg/kg/injection, schedule: Q01DX009 (ip), vehicle: saline with Tween-80"}, "[9]": {"details": "dose: 400.0 mg/kg/injection, schedule: Q01DX001 (ip), vehicle: saline"}},
  "note": "The list shows only some results of the screen, not a fair sample: it is rich in T/C values a quarter to a half above the control, in often repeated tests (any T/C) and in doses without a T/C. Other doses and runs of a compound stand elsewhere. T/C gives the treated animals as a percentage of the vehicle group. Some doses have a count of surviving animals in place of a T/C: the source holds a T/C of zero for them, seemingly a mark for toxic or unscored doses. Some doses without a T/C left all or most animals alive at the check, yet need not have been tolerated: the source hardly ever lists a survival T/C far under the control, and the zero likely stands for such cases as well. Survivors were counted at the toxicity check, usually on the fifth day, unless a day is given; later deaths do not show. Schedule codes are those of the source, taken here to give the interval after Q, in days (D) or hours (H), and the number of doses after X. Some doses were run more than once; their values stand side by side, smallest first. Some schedules carry Z or #; the key to these is not given. Where survival is the endpoint, the PubChem record calls one and a half times the control and up active, and a quarter to a half above the control has no call in these data; cut-offs in other NCI protocols can differ.",
  "data": [
    {"smiles": "NS(=O)(=O)N1CCCCC1", "values": [
      {"measurement": "survivor count", "setting": "dose: 75.0 mg/kg/injection, schedule: Q01DX001 (ip), vehicle: saline", "value": "2 of 6"},
      {"measurement": "survivor count", "setting": "dose: 150.0 mg/kg/injection, schedule: Q01DX001 (ip), vehicle: saline", "value": "0 of 6"},
      {"measurement": "survivor count", "setting": "dose: 300.0 mg/kg/injection, schedule: Q01DX001 (ip), vehicle: saline", "value": "0 of 6"}
    ]},
    {"smiles": "CC1C(C(=O)c2ccc(-c3ccccc3)cc2)N1C1CCCCC1", "note": "(configuration not stated)", "values": [
      {"measurement": "survivor count", "setting": "[1]", "value": "3 of 3"}
    ]},
    {"smiles": "Nc1nc(=S)[nH][nH]1", "values": [
      {"measurement": "survivor count", "setting": "dose: 400.0 mg/kg/injection, schedule: Q01DX001 (ip), vehicle: saline with Tween-80", "value": "2 of 6"},
      {"measurement": "survivor count", "setting": "[1]", "value": "1 of 6"}
    ]},
    {"smiles": "COC(=O)C(Br)[P+](c1ccccc1)(c1ccccc1)c1ccccc1", "note": "(configuration not stated)", "values": [
      {"measurement": "survivor count", "setting": "[2]", "value": "0 of 6"},
      {"measurement": "survivor count", "setting": "[3]", "value": "0 of 6"},
      {"measurement": "survivor count", "setting": "[4]", "value": "0 of 6"}
    ]},
    {"smiles": "Clc1cccc(Cl)c1C[N+]12CN3CN(CN(C3)C1)C2", "values": [
      {"measurement": "survivor count", "setting": "dose: 240.0 mg/kg/injection, schedule: Q01DX015 (ip), vehicle: saline", "value": "1 of 6"}
    ]},
    {"smiles": "Cn1c2c(c(=O)n(C)c1=O)CC(=O)N2", "values": [
      {"measurement": "survivor count", "setting": "[5]", "value": "0 of 3"}
    ]},
    {"smiles": "O=S(=O)(F)c1ccc(C[P+](c2ccccc2)(c2ccccc2)c2ccccc2)cc1Cl", "values": [
      {"measurement": "survivor count", "setting": "dose: 100.0 mg/kg/injection, schedule: Q01DX001 (ip), vehicle: carboxymethylcellulose (CMC)", "value": "0 of 6 and 1 of 3"},
      {"measurement": "survivor count", "setting": "[6]", "value": "0 of 3 and 0 of 6"},
      {"measurement": "survivor count", "setting": "dose: 200.0 mg/kg/injection, schedule: Q04DX002 (ip), vehicle: carboxymethylcellulose (CMC)", "value": "0 of 3 and 1 of 6"},
      {"measurement": "survivor count", "setting": "dose: 400.0 mg/kg/injection, schedule: Q04DX002 (ip), vehicle: carboxymethylcellulose (CMC)", "value": "0 of 3 and 0 of 6"}
    ]},
    {"smiles": "COC1=CC2C3=CC(C)C4C(=O)OC(=O)C4C3C1C1C(=O)OC(=O)C21", "note": "(configuration not stated)", "values": [
      {"measurement": "survivor count", "setting": "[7]", "value": "0 of 3"}
    ]},
    {"smiles": "C/C(=N\\NC(=O)C1CCCO1)c1cccc2ccccc12", "note": "(configuration not stated)", "values": [
      {"measurement": "survivor count", "setting": "dose: 50.0 mg/kg/injection, schedule: Q01DX009 (ip), vehicle: Klucel (hydroxypropylcellulose) (HPC)", "value": "4 of 6"},
      {"measurement": "survivor count", "setting": "dose: 100.0 mg/kg/injection, schedule: Q01DX009 (ip), vehicle: Klucel (hydroxypropylcellulose) (HPC)", "value": "6 of 6"},
      {"measurement": "survivor count", "setting": "[5]", "value": "0 of 6"},
      {"measurement": "survivor count", "setting": "dose: 400.0 mg/kg/injection, schedule: Q01DX009 (ip), vehicle: Klucel (hydroxypropylcellulose) (HPC)", "value": "0 of 6"}
    ]},
    {"smiles": "c1cc[c]([Sn]([S]c2ccccn2)([c]2ccccc2)[c]2ccccc2)cc1", "values": [
      {"measurement": "survivor count", "setting": "dose: 100.0 mg/kg/injection, schedule: Q04DX002 (ip), vehicle: saline with Tween-80", "value": "1 of 3"},
      {"measurement": "survivor count", "setting": "dose: 200.0 mg/kg/injection, schedule: Q04DX002 (ip), vehicle: saline with Tween-80", "value": "0 of 3"},
      {"measurement": "survivor count", "setting": "dose: 400.0 mg/kg/injection, schedule: Q04DX002 (ip), vehicle: saline with Tween-80", "value": "0 of 3"}
    ]},
    {"smiles": "O=C(OCCCCOC(=O)c1cccc([N+](=O)[O-])c1)c1cccc([N+](=O)[O-])c1", "values": [
      {"measurement": "survivor count", "setting": "dose: 25.0 mg/kg/injection, schedule: Q01DX009 (ip), vehicle: saline with Tween-80", "value": "1 of 6"},
      {"measurement": "survivor count", "setting": "dose: 50.0 mg/kg/injection, schedule: Q01DX009 (ip), vehicle: saline with Tween-80", "value": "0 of 6"},
      {"measurement": "survivor count", "setting": "[8]", "value": "0 of 6"}
    ]},
    {"smiles": "CCN(CC)CCNc1ccccc1Cl", "values": [
      {"measurement": "survivor count", "setting": "[9]", "value": "0 of 4"}
    ]},
    {"smiles": "Cc1cc(NCC2CCNCC2)nc(/N=C(\\N)Nc2ccc(Cl)c(Cl)c2)n1", "values": [
      {"measurement": "survivor count", "setting": "dose: 200.0 mg/kg/injection, schedule: Q04DX003 (ip), vehicle: saline", "value": "1 of 6"},
      {"measurement": "survivor count", "setting": "dose: 400.0 mg/kg/injection, schedule: Q04DX003 (ip), vehicle: saline", "value": "2 of 6"}
    ]},
    {"smiles": "O=NN(CCCl)C(=O)NC1CCS(=O)(=O)CC1", "values": [
      {"measurement": "T/C", "setting": "dose: 3.0 mg/kg/injection, schedule: Q01DX001 (ip), vehicle: carboxymethylcellulose (CMC)", "value": "139 % of control"},
      {"measurement": "T/C", "setting": "dose: 27.0 mg/kg/injection, schedule: Q01DX001 (ip), vehicle: carboxymethylcellulose (CMC)", "value": "135 % of control"},
      {"measurement": "survivor count", "setting": "dose: 50.0 mg/kg/injection, schedule: Q01DX001 (ip), vehicle: carboxymethylcellulose (CMC)", "value": "6 of 6"},
      {"measurement": "survivor count", "setting": "[2]", "value": "3 of 6"},
      {"measurement": "survivor count", "setting": "[3]", "value": "1 of 6"},
      {"measurement": "survivor count", "setting": "[6]", "value": "0 of 6"},
      {"measurement": "survivor count", "setting": "[4]", "value": "0 of 6"},
      {"measurement": "survivor count", "setting": "dose: 350.0 mg/kg/injection, schedule: Q01DX001 (ip), vehicle: carboxymethylcellulose (CMC)", "value": "0 of 6"},
      {"measurement": "survivor count", "setting": "dose: 375.0 mg/kg/injection, schedule: Q01DX001 (ip), vehicle: carboxymethylcellulose (CMC)", "value": "0 of 6"},
      {"measurement": "survivor count", "setting": "dose: 500.0 mg/kg/injection, schedule: Q01DX001 (ip), vehicle: carboxymethylcellulose (CMC)", "value": "0 of 6"}
    ]},
    {"smiles": "O=C1CCC(c2ccccc2)(C2CCN(Cc3ccc(F)cc3)CC2)C(=O)N1", "note": "(configuration not stated)", "values": [
      {"measurement": "survivor count", "setting": "dose: 100.0 mg/kg/injection, schedule: Q01DX009 (ip), vehicle: other", "value": "0 of 6"},
      {"measurement": "survivor count", "setting": "dose: 200.0 mg/kg/injection, schedule: Q01DX009 (ip), vehicle: other", "value": "0 of 6"},
      {"measurement": "survivor count", "setting": "dose: 400.0 mg/kg/injection, schedule: Q01DX009 (ip), vehicle: other", "value": "0 of 6"}
    ]},
    {"smiles": "C[N+]([O-])(CCC#N)CC(=O)O", "note": "(configuration not stated)", "values": [
      {"measurement": "survivor count", "setting": "[9]", "value": "3 of 6"}
    ]},
    {"smiles": "Oc1ccc(O)c2c1C1c3ccccc3C2c2ccccc21", "values": [
      {"measurement": "survivor count", "setting": "[9]", "value": "6 of 6"}
    ]},
    {"smiles": "CC(C)CCOc1ccc(N)c([N+](=O)[O-])c1", "values": [
      {"measurement": "survivor count", "setting": "[8]", "value": "0 of 6"},
      {"measurement": "survivor count", "setting": "[7]", "value": "0 of 6"},
      {"measurement": "survivor count", "setting": "[1]", "value": "3 of 6"}
    ]},
    {"smiles": "N#CCCCOc1cccc([N+](=O)[O-])c1", "values": [
      {"measurement": "survivor count", "setting": "dose: 400.0 mg/kg/injection, schedule: Q01DX009 (ip), vehicle: saline with Tween-80", "value": "1 of 6"}
    ]},
    {"smiles": "Cl/C=C\\C[N+]12CN3CN(CN(C3)C1)C2", "values": [
      {"measurement": "survivor count", "setting": "dose: 100.0 mg/kg/injection, schedule: Q04DX003 (ip), vehicle: saline", "value": "3 of 6"}
    ]},
    {"smiles": "Cc1ccc(Nc2nc(N)nc(N)c2N)cc1C", "values": [
      {"measurement": "survivor count", "setting": "dose: 50.0 mg/kg/injection, schedule: Q01DX Z (ip), vehicle: saline", "value": "1 of 6"},
      {"measurement": "survivor count", "setting": "dose: 100.0 mg/kg/injection, schedule: Q01DX Z (ip), vehicle: saline", "value": "0 of 6"},
      {"measurement": "survivor count", "setting": "dose: 200.0 mg/kg/injection, schedule: Q01DX Z (ip), vehicle: saline", "value": "0 of 6"}
    ]}
  ]
}
